These are yes or no findings as the source states them, for the method shown. Binding seen in cells or lysates may run through a third protein. Some results given as binding are weak or reduced against the parent protein; the word gives no strength. Tags and fused reporters may be left off the sequences shown.

The source of these data is paper PMC9018043.

The experiment concerns the target T1, Flag-tagged α-tocopherol transfer protein (UniProt P49638).
T1 sequence: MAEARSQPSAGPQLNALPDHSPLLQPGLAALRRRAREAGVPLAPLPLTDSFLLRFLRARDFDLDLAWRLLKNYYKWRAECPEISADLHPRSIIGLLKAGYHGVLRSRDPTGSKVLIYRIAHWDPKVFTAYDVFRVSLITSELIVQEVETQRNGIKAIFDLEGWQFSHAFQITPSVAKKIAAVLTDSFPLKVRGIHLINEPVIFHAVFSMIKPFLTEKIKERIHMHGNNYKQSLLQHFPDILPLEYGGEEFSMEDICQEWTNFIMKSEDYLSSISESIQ
The experiment in a line: co-IP; HEK293 cells cotransfected with Flag-tagged αTTP and Myc-tagged CLVS1 (wild-type or p.H310Y), harvested about 68 h after transfection; Flag immunoprecipitation kit (and a Myc-tag Co-IP kit), immunoblot; in the presence of excess α-tocopherol. A general note: In western blotting, separated proteins are transferred to a membrane and probed.

B1: Myc-tagged wild-type clavesin-1 (protein, UniProt Q8IUQ0-1 1-354)
chain: MGPVSLLPKYQKLNTWNGDLAKMTHLQAGLSPETIEKARLELNENPDVLHQDIQQVRDMIITRPDIGFLRTDDAFILRFLRARKFHQADAFRLLAQYFQYRQLNLDMFKNFKADDPGIKRALIDGFPGVLENRDHYGRKILLLFAANWDQSRNSFTDILRAILLSLEVLIEDPELQINGFILIIDWSNFSFKQASKLTPSILKLAIEGLQDSFPARFGGVHFVNQPWYIHALYTLIKPFLKDKTRKRIFLHGNNLNSLHQLIHPEFLPSEFGGTLPPYDMGTWARTLLGPDYSDENDYTHTSYNAMHVKHTSSNLERECSPKLMKRSQSVVEAGTLKHEEKGENENTQPLLALD
Consider B1, for which the binding entry is listed as “binds”.

B2: Myc-tagged clavesin-1 p.H310Y (protein, UniProt Q8IUQ0-1 1-354)
chain: MGPVSLLPKYQKLNTWNGDLAKMTHLQAGLSPETIEKARLELNENPDVLHQDIQQVRDMIITRPDIGFLRTDDAFILRFLRARKFHQADAFRLLAQYFQYRQLNLDMFKNFKADDPGIKRALIDGFPGVLENRDHYGRKILLLFAANWDQSRNSFTDILRAILLSLEVLIEDPELQINGFILIIDWSNFSFKQASKLTPSILKLAIEGLQDSFPARFGGVHFVNQPWYIHALYTLIKPFLKDKTRKRIFLHGNNLNSLHQLIHPEFLPSEFGGTLPPYDMGTWARTLLGPDYSDENDYTHTSYNAMHVKYTSSNLERECSPKLMKRSQSVVEAGTLKHEEKGENENTQPLLALD
Turning to B2, the binding entry was “binds”.
